No constants are given. Whether binding was seen depends on the method and setting. Some entries that bind do so weakly or less than the wild type.
Legend:
[1] = target: mouse PDGFR-hIgG1-Fc chimeric fusion protein (mouse; human) (UniProt P05622); assay: SPR (Biacore T100), PDGFR-Fc captured by anti-hIgG1 Fc
[2] = target: human PDGFR-hIgG1-Fc chimeric fusion protein (human) (UniProt P09619); assay: as above

Sequences of proteins named here, by UniProt entry; tags and fusion partners are left off. A change or cut given only in a name is not applied to a line headed by its entry. Residues count along the entry.
UniProt P05622, residues 32-530: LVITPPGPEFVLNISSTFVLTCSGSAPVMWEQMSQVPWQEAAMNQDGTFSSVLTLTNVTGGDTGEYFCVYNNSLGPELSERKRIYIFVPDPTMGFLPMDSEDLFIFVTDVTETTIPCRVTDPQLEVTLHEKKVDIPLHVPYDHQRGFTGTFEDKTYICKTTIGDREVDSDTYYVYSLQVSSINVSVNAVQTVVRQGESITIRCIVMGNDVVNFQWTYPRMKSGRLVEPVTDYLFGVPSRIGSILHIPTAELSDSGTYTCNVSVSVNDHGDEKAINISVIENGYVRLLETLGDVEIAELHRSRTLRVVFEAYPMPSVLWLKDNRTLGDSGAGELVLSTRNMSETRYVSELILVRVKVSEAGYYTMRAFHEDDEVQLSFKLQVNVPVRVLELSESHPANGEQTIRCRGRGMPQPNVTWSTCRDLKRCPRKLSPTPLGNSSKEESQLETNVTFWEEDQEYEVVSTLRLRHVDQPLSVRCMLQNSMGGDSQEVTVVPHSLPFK

B1: XB2708 VH domain (protein)
VH: QVQLVQSGGGVVQPGGSLRLSCAASGFTSRSYGMHWVRQAPGKGLEWVAFILFDGNNKYYADSVKGRFTISSDNSKNTLYLQMNSLRAEDTAVYYCATHGGDRSYWGQGTLVTVSS
Question: B1 was tested. Which binding [1] did it give?
Answer: The binding was “binds”.

Question: And the binding [2]?
Answer: Its binding is “binds”.
